Data: publication PMC11603163
These are yes or no findings as the source states them, for the method shown. Binding seen in cells or lysates may run through a third protein. These calls come from enrichment with a bait or labelling near it, and not all partners need be listed. For some of these results: A no says only that the protein was not detected with the bait. For some of these results: Sequences can lack the tags named with a protein.

Protein sequences, listed by entry. Tags and fused reporters are not part of them.
UniProt Q9LQ02: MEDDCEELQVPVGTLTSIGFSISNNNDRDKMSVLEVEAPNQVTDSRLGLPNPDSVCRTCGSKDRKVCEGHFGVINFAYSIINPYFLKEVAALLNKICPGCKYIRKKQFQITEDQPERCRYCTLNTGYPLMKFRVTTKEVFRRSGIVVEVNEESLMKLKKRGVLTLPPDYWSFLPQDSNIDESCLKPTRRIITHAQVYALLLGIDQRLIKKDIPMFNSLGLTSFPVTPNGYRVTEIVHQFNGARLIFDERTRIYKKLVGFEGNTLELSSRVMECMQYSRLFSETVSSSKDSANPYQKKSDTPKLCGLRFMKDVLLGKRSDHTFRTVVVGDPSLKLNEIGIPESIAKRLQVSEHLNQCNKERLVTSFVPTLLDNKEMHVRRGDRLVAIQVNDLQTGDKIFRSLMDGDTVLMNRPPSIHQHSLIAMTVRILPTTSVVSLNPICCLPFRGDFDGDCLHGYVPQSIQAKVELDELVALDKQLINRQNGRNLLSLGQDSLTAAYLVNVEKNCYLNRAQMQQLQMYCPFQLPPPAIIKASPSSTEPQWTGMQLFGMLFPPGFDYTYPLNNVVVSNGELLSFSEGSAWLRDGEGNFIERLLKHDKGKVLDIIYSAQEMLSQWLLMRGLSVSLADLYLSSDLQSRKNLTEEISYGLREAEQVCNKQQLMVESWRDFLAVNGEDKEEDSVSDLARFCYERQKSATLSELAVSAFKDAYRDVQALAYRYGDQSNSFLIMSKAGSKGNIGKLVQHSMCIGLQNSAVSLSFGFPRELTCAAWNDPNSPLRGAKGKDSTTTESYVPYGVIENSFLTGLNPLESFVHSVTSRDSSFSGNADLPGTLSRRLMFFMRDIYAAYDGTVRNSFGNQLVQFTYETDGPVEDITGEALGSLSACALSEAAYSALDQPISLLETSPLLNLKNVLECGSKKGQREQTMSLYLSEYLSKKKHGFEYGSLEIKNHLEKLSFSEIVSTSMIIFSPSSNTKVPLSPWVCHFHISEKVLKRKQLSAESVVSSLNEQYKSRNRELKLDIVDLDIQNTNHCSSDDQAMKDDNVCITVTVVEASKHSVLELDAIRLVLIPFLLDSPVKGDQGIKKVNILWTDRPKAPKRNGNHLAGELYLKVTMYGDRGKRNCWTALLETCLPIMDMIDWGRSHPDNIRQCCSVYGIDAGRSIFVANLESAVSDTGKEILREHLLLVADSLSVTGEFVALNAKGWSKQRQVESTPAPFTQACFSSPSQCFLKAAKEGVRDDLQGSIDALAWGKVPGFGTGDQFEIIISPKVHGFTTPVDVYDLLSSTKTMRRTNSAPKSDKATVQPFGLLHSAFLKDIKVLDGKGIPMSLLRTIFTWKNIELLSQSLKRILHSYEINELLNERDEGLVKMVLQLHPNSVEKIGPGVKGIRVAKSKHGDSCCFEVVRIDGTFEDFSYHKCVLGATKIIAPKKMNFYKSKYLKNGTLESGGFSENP

Experiments:
3xHA-CLSY1 (Arabidopsis) = molecular target: T1, 3xHA-CLSY1 (Arabidopsis) (UniProt Q9M297); experiment: affinity purification with mass spectrometry; anti-HA IP (uMACS HA kit) of 3xHA-CLSY1 from flowers of nrpd1-3 lines with NRPD1-3xF WT or AAA-YPMF; LC-MS/MS
T1 sequence: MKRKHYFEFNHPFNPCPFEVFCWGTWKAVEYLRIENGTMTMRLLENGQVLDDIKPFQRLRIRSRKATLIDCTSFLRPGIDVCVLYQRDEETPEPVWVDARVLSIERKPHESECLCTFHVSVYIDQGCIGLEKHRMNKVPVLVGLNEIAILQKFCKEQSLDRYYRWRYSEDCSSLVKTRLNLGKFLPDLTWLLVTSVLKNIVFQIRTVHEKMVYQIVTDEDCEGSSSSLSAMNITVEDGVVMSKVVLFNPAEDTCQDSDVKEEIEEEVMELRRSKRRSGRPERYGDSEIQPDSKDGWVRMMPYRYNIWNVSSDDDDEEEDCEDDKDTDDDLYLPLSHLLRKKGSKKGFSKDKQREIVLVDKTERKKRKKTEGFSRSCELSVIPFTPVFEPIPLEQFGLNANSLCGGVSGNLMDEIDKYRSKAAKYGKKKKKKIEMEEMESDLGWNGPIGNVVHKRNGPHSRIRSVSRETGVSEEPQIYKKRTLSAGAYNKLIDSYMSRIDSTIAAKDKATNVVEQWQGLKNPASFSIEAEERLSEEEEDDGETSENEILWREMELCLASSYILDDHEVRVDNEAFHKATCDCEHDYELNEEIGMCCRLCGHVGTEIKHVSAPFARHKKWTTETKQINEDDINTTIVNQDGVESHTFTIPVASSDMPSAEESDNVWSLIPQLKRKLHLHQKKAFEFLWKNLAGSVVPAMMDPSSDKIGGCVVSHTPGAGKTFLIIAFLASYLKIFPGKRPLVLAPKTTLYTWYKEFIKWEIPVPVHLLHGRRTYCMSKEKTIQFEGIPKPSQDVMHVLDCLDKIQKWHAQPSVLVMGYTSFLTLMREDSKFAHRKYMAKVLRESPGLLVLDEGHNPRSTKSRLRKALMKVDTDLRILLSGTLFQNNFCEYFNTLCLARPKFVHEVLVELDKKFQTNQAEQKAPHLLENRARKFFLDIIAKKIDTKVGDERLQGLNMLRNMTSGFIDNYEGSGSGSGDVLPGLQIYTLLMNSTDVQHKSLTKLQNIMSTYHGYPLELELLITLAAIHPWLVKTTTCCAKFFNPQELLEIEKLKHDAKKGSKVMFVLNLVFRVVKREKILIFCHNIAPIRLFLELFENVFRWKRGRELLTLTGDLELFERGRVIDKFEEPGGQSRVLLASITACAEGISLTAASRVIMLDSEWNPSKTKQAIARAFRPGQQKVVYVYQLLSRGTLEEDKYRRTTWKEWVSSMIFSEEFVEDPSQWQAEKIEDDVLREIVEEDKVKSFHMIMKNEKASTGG

[1] = molecular target: T2, 3xF-tagged CLSY1 (Arabidopsis) (UniProt Q9M297); experiment: affinity purification with mass spectrometry; anti-Flag M2 magnetic beads on 10 g flowers of 3xF-tagged CLSY lines in their clsy mutant backgrounds; elution with 3x-FLAG peptide; compared to non-transgenic wild-type controls
T2 sequence: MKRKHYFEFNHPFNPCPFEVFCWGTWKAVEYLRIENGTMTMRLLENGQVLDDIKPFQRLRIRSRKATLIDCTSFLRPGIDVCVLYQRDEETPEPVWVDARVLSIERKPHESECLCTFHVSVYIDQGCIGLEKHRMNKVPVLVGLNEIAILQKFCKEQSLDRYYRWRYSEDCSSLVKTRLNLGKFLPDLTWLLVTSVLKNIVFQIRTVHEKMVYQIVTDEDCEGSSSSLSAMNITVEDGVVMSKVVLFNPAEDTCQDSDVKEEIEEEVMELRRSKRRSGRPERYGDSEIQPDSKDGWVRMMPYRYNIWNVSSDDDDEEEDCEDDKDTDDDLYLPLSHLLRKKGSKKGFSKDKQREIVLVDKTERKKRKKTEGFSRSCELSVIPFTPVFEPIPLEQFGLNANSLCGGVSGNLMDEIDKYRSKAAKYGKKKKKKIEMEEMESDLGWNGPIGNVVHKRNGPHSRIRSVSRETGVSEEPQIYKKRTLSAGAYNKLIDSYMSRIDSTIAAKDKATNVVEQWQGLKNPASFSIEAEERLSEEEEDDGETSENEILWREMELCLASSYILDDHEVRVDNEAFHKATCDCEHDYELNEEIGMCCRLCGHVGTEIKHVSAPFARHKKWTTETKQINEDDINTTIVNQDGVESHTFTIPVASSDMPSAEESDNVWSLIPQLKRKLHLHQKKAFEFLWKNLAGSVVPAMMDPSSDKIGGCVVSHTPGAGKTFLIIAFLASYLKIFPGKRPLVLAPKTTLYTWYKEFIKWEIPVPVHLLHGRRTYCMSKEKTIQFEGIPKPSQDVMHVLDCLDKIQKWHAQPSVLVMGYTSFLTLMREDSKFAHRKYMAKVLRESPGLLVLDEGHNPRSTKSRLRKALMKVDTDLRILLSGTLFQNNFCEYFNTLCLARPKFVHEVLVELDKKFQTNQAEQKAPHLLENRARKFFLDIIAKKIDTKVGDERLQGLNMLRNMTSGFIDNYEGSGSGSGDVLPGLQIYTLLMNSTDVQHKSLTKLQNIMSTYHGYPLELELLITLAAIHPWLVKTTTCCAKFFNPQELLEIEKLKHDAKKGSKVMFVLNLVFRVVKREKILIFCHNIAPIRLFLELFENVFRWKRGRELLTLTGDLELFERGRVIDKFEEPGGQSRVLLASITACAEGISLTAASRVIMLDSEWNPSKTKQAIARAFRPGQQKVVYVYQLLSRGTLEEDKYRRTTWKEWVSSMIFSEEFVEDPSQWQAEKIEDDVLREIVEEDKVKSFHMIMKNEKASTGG

[2] = molecular target: T3, 3xF-tagged CLSY4 (Arabidopsis) (UniProt Q9LK10); experiment: as above
T3 sequence: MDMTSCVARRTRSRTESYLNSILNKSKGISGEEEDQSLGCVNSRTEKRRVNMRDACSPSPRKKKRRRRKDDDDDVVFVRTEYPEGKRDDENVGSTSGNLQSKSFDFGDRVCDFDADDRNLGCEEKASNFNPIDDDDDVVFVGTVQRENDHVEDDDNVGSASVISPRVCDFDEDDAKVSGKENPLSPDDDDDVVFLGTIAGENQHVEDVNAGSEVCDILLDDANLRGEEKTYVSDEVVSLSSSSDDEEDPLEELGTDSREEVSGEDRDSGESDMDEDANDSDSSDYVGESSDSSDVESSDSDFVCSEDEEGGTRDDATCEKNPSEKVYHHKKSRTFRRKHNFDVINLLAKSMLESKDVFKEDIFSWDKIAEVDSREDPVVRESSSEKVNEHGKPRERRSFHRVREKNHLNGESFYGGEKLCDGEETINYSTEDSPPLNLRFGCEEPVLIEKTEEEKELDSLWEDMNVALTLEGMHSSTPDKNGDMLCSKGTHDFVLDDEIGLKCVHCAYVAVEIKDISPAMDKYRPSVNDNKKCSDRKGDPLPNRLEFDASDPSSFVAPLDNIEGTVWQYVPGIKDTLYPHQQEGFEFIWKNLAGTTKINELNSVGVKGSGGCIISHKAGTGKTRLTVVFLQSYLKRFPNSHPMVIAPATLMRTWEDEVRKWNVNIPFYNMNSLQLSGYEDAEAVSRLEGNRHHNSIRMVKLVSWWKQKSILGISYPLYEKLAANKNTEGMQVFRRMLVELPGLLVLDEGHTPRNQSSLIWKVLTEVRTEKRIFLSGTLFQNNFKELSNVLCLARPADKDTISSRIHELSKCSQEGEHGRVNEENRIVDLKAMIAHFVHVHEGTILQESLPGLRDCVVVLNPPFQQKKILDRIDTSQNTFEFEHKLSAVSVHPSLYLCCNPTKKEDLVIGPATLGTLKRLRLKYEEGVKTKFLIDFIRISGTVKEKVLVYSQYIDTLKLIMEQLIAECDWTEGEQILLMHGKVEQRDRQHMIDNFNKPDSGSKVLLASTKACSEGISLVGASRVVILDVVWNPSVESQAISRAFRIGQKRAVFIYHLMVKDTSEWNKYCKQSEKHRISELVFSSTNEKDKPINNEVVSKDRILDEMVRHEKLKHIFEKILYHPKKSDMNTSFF

[3] = molecular target: NRPD1-3xFWT (Arabidopsis) (UniProt Q9LQ02); experiment: affinity purification with mass spectrometry; anti-FLAG magnetic beads (uMACS DYKDDDK kit) on flower extracts of nrpd1-3 T2 lines with NRPD1-3xF WT, AAA-YPMF or CYC-AAAA; three lines, two replicates each; LC-MS/MS spectral counts

B1: CLASSY 3 (CLSY3) (protein, UniProt F4I8S3 1-1410)
chain: MECIGKRVKSRSWQRLQAVNKRKKMETVAPVTSPPKKRRQKKPKNYDSDIEDITPTCNDSVPPPQVSNMYSVPNNSVKESFSRIMRDLNVEKKSGPSSSRLTDGSEQNPCLKERSFRVSDLGVEKKCSPEITDLDVGIPVPRFSKLKDVSEQKNTCLMQKSSPEIADLDLVISVPSSSVLKDVSEEIRFLKDKCSPEIRGLVLEKSVPGEIEILSDSESETEARRRASAKKKLFEESSRIVESISDGEDSSSETDEEEEENQDSEDNNTKDNVTVESLSSEDPSSSSSSSSSSSSSSSSSSSDDESYVKEVVGDNRDDDDLRKASSPIKRVSLVERKALVRYKRSGSSLTKPRERDNKIQKLNHREEEKKERQREVVRVVTKQPSNVVYTCAHCGKENTGNPESHSSFIRPHSIRDEIEDVNNFASTNVSKYEDSVSINSGKTTGAPSRPEVENPETGKELNTPEKPSISRPEIFTTEKAIDVQVPEEPSRPEIYSSEKAKEVQAPEMPSRPEVFSSEKAKEIQVPEMPSIPEIQNSEKAKEVQANNRMGLTTPAVAEGLNKSVVTNEHIEDDSDSSISSGDGYESDPTLKDKEVKINNHSDWRILNGNNKEVDLFRLLVNSVWEKGQLGEEDEADELVSSAEDQSQEQAREDHRKYDDAGLLIIRPPPLIEKFGVEEPQSPPVVSEIDSEEDRLWEELAFFTKSNDIGGNELFSNVEKNISANETPAAQCKKGKHDLCIDLEVGLKCMHCGFVEREIRSMDVSEWGEKTTRERRKFDRFEEEEGSSFIGKLGFDAPNNSLNEGCVSSEGTVWDKIPGVKSQMYPHQQEGFEFIWKNLAGTIMLNELKDFENSDETGGCIMSHAPGTGKTRLTIIFLQAYLQCFPDCKPVIIAPASLLLTWAEEFKKWNISIPFHNLSSLDFTGKENSAALGLLMQKNATARSNNEIRMVKIYSWIKSKSILGISYNLYEKLAGVKDEDKKTKMVREVKPDKELDDIREILMGRPGLLVLDEAHTPRNQRSCIWKTLSKVETQKRILLSGTPFQNNFLELCNVLGLARPKYLERLTSTLKKSGMTVTKRGKKNLGNEINNRGIEELKAVMLPFVHVHKGSILQSSLPGLRECVVVLNPPELQRRVLESIEVTHNRKTKNVFETEHKLSLVSVHPSLVSRCKISEKERLSIDEALLAQLKKVRLDPNQSVKTRFLMEFVELCEVIKEKVLVFSQYIDPLKLIMKHLVSRFKWNPGEEVLYMHGKLEQKQRQTLINEFNDPKSKAKVFLASTKACSEGISLVGASRVILLDVVWNPAVERQAISRAYRIGQKRIVYTYHLVAKGTPEGPKYCKQAQKDRISELVFACSSRHDKGKEKIAEAVTEDKVLDTMVEHSKLGDMFDNLIVQPKEADLVEGFSILMP
binding (3xHA-CLSY1 (Arabidopsis)): no binding | binding [1]: no binding | binding [2]: no binding | binding [3]: binds
